Measurements as given in patent US20030162221A1.
These are yes or no findings as the source states them, for the method shown. Binding seen in cells or lysates may run through a third protein. Some binding calls cover weakened binding; strength is not graded here. For some of these results: Tags and fused reporters may be left off the sequences shown.

Amino acid sequences for entries named in this document (tags omitted). Residues count along the entry.
UniProt P38328: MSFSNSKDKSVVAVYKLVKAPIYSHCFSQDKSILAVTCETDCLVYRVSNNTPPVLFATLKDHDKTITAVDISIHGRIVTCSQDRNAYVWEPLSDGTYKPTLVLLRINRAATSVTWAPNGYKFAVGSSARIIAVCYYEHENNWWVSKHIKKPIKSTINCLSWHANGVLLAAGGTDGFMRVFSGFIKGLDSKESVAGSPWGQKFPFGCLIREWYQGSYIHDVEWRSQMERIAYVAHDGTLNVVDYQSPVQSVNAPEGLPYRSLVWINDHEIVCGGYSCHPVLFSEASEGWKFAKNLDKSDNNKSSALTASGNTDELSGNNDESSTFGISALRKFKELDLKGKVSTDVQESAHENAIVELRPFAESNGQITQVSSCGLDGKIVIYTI
UniProt Q05933: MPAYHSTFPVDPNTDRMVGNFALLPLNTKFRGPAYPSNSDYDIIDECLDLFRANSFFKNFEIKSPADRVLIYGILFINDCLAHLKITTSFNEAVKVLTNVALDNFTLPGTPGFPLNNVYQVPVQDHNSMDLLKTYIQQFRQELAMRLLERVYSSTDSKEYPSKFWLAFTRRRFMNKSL
UniProt P33204: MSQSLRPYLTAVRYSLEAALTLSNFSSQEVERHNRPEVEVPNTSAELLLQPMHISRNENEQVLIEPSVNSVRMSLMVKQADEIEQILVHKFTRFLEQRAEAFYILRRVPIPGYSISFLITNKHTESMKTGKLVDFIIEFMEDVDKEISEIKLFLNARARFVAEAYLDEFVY
UniProt P53731: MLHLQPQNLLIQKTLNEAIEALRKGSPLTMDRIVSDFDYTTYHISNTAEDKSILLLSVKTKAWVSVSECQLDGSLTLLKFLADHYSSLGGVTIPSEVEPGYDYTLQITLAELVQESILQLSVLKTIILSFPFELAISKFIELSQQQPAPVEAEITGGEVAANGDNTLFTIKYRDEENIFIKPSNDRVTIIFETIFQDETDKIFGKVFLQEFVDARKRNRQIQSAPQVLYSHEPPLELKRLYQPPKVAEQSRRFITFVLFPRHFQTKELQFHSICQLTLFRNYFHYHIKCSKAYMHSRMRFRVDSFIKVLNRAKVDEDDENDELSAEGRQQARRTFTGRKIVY
UniProt P47117: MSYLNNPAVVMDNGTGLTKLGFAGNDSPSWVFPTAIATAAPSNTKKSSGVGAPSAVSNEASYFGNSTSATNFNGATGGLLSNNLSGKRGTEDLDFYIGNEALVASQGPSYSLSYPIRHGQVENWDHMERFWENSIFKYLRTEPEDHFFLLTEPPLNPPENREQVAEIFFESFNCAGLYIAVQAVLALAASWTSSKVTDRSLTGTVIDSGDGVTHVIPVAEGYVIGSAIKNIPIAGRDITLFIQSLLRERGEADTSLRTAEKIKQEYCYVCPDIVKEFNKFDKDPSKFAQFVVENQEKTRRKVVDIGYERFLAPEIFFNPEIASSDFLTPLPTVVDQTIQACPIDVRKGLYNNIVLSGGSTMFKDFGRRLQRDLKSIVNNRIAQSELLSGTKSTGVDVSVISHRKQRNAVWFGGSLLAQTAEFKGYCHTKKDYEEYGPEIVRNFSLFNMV
UniProt P40518: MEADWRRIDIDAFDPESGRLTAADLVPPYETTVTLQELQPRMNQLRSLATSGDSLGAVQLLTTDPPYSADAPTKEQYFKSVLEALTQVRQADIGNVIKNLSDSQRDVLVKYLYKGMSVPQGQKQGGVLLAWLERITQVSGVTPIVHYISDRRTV
UniProt P32381: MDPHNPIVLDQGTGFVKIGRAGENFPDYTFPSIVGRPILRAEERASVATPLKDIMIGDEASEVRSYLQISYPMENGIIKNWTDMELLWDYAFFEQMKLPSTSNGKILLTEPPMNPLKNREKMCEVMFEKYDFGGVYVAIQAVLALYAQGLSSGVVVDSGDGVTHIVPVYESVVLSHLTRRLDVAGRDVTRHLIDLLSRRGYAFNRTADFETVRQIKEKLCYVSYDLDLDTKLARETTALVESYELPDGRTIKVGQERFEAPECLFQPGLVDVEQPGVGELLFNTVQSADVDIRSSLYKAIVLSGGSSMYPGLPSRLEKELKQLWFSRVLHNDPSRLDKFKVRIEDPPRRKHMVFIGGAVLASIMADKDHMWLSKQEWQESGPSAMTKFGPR
UniProt P32447: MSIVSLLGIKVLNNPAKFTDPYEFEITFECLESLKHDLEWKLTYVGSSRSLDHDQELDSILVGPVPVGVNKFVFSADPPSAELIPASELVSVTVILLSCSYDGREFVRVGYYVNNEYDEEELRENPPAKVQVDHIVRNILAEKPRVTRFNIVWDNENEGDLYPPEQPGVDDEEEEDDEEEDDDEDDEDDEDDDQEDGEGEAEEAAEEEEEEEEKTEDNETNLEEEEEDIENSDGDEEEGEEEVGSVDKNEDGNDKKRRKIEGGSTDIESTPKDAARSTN
UniProt P00546, residues 2-298: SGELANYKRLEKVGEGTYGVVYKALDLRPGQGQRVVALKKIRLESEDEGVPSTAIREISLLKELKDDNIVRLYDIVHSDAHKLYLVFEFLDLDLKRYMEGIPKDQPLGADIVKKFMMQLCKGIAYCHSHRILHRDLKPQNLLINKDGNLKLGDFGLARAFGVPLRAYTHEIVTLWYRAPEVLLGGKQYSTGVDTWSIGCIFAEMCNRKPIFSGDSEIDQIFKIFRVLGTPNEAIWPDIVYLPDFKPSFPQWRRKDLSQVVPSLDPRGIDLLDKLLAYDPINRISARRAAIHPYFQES
UniProt P22216: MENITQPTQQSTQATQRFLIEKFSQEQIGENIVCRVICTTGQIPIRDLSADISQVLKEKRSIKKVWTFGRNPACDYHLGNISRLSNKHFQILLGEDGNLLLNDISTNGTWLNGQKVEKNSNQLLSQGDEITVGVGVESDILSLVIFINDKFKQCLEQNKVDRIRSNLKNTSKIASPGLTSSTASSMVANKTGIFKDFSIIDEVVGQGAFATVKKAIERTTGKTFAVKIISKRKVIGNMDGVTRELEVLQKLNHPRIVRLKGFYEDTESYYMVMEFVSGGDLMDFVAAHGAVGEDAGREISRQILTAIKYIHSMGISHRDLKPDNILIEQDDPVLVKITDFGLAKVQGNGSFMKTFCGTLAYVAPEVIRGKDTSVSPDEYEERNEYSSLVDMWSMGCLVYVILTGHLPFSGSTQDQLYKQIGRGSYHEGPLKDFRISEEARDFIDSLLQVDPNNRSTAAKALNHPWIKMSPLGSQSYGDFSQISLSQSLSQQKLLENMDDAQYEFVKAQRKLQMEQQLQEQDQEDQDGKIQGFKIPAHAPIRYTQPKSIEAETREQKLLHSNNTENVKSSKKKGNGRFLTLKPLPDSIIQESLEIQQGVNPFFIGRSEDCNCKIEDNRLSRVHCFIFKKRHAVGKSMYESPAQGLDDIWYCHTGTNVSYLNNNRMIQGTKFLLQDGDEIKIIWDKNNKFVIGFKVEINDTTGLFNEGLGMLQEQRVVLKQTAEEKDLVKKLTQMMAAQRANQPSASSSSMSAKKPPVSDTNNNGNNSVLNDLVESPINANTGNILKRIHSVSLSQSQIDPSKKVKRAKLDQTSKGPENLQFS
UniProt P12954: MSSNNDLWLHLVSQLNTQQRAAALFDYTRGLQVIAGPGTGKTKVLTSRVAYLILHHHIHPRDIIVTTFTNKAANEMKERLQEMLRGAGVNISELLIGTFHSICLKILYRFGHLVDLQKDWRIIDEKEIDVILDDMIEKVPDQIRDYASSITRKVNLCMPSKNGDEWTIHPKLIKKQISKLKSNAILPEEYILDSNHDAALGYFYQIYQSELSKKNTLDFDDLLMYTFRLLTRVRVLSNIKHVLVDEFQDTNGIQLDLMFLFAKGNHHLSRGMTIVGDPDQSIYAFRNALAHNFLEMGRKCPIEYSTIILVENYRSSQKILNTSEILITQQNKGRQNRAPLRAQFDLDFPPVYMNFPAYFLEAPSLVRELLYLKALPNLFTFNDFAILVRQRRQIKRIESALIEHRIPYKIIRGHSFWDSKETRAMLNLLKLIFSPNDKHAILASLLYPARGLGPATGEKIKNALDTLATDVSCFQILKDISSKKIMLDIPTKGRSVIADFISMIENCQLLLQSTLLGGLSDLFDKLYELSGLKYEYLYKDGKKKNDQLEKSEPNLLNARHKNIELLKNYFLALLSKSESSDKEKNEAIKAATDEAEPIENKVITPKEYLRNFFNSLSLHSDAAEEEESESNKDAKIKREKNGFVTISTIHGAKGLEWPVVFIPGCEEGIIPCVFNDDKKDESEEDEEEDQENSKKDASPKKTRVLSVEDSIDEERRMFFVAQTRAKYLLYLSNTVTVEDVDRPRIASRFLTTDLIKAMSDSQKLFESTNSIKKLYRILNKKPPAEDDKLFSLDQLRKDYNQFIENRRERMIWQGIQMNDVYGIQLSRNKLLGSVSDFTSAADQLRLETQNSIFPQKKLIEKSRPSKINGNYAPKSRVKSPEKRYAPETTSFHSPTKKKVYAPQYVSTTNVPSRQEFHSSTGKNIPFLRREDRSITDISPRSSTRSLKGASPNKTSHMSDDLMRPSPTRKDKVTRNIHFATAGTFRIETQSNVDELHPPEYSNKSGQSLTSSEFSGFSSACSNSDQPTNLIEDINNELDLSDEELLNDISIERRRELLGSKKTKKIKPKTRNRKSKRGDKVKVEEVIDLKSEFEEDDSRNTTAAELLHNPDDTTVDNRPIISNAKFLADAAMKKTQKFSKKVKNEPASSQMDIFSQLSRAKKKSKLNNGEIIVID
UniProt P39940: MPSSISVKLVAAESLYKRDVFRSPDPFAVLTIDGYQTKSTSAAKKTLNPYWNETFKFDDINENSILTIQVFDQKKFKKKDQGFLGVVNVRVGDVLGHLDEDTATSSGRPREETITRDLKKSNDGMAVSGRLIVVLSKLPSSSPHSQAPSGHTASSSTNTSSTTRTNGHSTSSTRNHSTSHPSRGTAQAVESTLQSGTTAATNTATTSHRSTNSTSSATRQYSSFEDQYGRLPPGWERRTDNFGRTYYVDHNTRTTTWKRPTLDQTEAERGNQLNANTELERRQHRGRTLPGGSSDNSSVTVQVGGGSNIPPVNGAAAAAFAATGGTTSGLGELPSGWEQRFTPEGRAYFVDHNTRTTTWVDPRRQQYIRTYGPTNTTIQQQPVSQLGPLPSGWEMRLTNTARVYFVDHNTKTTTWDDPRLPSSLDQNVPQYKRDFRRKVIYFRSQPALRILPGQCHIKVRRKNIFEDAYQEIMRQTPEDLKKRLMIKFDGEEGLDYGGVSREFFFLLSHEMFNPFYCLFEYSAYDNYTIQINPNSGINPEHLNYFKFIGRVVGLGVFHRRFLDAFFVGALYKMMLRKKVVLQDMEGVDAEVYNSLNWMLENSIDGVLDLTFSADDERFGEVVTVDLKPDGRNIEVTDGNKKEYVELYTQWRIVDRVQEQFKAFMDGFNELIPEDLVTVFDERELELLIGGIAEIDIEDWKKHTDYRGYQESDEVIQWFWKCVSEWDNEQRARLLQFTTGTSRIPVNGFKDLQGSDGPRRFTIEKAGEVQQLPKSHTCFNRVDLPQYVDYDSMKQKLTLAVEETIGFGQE

Assays:
[1] = molecular target: T1, Dun1 (Saccharomyces cerevisiae) (UniProt P39009); experiment: anti-FLAG co-IP, LC-MS/MS; Dun1 was the prey by Table 2
T1 sequence (looked up): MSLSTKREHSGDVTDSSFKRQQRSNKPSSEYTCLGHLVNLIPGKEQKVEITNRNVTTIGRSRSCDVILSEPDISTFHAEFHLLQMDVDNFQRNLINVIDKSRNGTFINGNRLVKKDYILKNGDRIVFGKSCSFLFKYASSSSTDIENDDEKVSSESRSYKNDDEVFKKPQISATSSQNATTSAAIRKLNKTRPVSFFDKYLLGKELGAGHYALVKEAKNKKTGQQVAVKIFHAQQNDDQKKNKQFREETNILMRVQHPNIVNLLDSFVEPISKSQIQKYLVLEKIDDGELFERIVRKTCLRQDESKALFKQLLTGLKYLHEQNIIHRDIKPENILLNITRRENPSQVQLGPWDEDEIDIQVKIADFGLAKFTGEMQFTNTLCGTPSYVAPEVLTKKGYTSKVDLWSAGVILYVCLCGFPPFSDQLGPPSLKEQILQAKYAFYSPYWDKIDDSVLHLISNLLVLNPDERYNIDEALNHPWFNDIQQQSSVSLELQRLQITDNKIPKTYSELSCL

[2] = molecular target: T1, Dun1 (Saccharomyces cerevisiae); experiment: anti-FLAG co-IP, LC-MS/MS
[3] = molecular target: Arc40 (Saccharomyces cerevisiae) (UniProt P38328); experiment: anti-FLAG co-IP, LC-MS/MS
[4] = molecular target: Arc18 (Saccharomyces cerevisiae) (UniProt Q05933); experiment: anti-FLAG co-IP, LC-MS/MS
[5] = molecular target: Arc19 (Saccharomyces cerevisiae) (UniProt P33204); experiment: anti-FLAG co-IP, LC-MS/MS
[6] = molecular target: Arc35 (Saccharomyces cerevisiae) (UniProt P53731); experiment: anti-FLAG co-IP, LC-MS/MS
[7] = molecular target: Arp3 (Saccharomyces cerevisiae) (UniProt P47117); experiment: anti-FLAG co-IP, LC-MS/MS
[8] = molecular target: Arc15 (Saccharomyces cerevisiae) (UniProt P40518); experiment: anti-FLAG co-IP, LC-MS/MS
[9] = molecular target: Arp2 (Saccharomyces cerevisiae) (UniProt P32381); experiment: anti-FLAG co-IP, LC-MS/MS
[10] = molecular target: T2, Clb3 (Saccharomyces cerevisiae) (UniProt P24870); experiment: anti-FLAG co-IP, LC-MS/MS
T2 sequence (looked up): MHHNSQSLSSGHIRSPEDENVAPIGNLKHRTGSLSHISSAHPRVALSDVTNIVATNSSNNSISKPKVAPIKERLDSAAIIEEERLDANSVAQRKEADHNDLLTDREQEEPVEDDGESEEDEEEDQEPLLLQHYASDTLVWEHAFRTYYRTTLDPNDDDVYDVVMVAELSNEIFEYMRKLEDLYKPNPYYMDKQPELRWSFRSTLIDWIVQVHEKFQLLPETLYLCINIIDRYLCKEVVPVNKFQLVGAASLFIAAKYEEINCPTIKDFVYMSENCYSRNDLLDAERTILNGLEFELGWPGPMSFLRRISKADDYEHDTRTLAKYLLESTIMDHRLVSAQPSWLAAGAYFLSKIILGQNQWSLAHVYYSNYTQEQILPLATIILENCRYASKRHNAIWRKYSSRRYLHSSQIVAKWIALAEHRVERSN

[11] = molecular target: T3, Cks1 (Saccharomyces cerevisiae) (UniProt P20486); experiment: anti-FLAG co-IP, LC-MS/MS
T3 sequence (looked up): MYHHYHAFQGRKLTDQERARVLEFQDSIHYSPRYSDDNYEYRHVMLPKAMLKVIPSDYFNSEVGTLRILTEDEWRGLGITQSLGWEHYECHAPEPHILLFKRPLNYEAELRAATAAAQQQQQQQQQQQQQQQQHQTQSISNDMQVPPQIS

[12] = molecular target: T4, Cln2 (Saccharomyces cerevisiae) (UniProt P20438); experiment: anti-FLAG co-IP, LC-MS/MS
T4 sequence (looked up): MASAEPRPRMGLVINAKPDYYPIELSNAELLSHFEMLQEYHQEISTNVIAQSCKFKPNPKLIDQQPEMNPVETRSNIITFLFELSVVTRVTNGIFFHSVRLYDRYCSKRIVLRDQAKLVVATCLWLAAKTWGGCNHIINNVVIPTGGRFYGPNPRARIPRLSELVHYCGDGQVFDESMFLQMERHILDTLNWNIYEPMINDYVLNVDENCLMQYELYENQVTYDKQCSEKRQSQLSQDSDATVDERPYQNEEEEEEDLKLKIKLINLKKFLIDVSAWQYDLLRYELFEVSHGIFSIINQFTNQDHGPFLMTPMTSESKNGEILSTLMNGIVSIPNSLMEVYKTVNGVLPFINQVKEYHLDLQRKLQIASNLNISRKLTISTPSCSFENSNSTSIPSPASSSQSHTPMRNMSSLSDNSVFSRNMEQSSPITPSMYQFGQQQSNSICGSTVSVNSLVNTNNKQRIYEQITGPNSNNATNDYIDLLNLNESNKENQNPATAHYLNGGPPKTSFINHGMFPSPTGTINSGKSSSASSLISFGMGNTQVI

[13] = molecular target: T5, Clb2 (Saccharomyces cerevisiae) (UniProt P24869); experiment: anti-FLAG co-IP, LC-MS/MS
T5 sequence (looked up): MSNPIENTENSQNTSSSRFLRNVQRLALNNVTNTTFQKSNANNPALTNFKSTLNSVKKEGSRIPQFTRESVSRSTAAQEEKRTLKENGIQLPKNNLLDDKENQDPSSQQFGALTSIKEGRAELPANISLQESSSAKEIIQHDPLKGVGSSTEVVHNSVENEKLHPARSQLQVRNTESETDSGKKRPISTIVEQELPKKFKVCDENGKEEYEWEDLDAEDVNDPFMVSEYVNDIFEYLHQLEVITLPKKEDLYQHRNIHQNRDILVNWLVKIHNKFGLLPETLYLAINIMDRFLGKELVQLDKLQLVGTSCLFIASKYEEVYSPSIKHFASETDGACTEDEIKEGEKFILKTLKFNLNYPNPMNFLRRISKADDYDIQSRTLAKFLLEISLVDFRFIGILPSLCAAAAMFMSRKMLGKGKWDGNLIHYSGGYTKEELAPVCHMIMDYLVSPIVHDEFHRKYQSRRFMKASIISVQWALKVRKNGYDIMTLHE

[14] = molecular target: T6, Clb5 (Saccharomyces cerevisiae) (UniProt P30283); experiment: anti-FLAG co-IP, LC-MS/MS
T6 sequence (looked up): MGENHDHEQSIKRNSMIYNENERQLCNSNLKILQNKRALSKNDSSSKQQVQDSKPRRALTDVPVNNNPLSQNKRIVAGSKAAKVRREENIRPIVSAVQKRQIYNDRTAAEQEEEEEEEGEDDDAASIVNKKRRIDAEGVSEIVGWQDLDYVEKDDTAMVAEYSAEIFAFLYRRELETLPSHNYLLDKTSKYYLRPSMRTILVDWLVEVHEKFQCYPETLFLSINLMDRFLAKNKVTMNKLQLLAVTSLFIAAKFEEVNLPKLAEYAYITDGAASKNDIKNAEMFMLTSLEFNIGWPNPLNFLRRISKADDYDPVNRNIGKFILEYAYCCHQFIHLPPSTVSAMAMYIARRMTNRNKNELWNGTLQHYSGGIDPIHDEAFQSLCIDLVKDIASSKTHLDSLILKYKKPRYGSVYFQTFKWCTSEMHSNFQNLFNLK

[15] = molecular target: T7, Cln1 (Saccharomyces cerevisiae) (UniProt P20437); experiment: anti-FLAG co-IP, LC-MS/MS
T7 sequence (looked up): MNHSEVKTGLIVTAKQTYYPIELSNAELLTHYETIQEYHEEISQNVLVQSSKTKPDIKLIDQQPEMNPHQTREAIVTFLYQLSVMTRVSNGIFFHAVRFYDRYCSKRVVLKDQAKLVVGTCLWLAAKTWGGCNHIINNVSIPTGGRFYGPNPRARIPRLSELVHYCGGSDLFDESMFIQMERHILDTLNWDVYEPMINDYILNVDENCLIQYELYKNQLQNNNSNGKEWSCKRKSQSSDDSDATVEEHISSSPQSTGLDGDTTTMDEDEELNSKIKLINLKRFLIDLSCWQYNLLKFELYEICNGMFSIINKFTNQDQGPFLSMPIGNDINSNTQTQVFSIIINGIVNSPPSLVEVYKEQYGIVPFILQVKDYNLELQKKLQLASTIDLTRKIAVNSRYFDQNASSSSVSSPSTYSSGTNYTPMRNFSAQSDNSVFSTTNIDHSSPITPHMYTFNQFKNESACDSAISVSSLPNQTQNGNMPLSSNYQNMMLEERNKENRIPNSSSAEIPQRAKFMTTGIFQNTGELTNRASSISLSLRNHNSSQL

[16] = molecular target: T8, Swi4 (Saccharomyces cerevisiae) (UniProt P25302); experiment: anti-FLAG co-IP, LC-MS/MS; SWI4 is a prey of RAD53 in Table 2
T8 sequence (looked up): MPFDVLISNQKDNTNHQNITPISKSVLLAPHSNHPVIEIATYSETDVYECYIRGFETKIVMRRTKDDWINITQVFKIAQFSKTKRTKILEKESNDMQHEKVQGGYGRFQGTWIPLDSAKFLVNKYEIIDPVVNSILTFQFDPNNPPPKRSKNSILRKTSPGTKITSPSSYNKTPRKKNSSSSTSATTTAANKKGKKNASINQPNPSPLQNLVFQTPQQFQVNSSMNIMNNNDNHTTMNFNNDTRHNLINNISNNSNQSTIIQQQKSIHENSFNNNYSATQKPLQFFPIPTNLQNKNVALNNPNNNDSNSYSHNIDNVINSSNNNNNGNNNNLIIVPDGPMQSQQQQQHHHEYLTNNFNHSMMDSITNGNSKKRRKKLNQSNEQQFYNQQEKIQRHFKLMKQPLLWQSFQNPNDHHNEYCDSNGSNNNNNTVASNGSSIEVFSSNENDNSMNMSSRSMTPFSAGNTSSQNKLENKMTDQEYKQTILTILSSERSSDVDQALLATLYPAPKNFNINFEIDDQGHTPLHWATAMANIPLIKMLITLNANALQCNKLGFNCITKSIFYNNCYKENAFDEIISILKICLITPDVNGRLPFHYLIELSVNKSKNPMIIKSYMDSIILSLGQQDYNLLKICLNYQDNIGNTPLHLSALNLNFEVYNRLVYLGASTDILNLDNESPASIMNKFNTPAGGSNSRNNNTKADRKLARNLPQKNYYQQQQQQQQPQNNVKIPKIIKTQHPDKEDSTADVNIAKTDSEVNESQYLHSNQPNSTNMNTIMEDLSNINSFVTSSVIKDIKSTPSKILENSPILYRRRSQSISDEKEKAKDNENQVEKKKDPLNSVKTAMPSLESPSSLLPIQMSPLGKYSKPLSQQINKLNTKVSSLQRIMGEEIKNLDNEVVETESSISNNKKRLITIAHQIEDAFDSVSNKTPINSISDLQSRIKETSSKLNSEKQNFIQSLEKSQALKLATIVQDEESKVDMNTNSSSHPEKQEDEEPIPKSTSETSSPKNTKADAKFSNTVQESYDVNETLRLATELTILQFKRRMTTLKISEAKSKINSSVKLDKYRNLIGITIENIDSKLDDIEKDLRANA

[17] = molecular target: T8, Swi4 (Saccharomyces cerevisiae); experiment: anti-FLAG co-IP, LC-MS/MS
[18] = molecular target: T9, Ydr071c (Saccharomyces cerevisiae) (UniProt Q12447); experiment: anti-FLAG co-IP, LC-MS/MS
T9 sequence (looked up): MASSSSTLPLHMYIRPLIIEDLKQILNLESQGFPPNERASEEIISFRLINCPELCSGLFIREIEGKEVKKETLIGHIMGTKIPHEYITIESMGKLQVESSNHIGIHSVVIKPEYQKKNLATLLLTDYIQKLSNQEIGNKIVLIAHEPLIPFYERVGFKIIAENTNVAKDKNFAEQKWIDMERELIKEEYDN

[19] = molecular target: T10, Ptc2 (Saccharomyces cerevisiae) (UniProt P39966); experiment: anti-FLAG co-IP, LC-MS/MS
T10 sequence (looked up): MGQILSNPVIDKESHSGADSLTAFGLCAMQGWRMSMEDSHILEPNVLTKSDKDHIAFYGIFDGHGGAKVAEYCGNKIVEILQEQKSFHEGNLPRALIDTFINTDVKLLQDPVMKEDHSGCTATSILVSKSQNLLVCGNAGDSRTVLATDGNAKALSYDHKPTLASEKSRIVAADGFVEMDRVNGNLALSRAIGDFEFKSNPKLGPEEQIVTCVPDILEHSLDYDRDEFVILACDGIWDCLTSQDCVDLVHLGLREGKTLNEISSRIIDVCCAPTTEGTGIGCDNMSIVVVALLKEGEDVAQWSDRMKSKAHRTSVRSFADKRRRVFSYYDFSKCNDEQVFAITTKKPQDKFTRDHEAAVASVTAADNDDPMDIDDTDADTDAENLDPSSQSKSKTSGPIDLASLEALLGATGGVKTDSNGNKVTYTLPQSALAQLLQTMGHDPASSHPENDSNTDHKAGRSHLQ

[20] = molecular target: Asf1 (Saccharomyces cerevisiae) (UniProt P32447); experiment: anti-FLAG co-IP, LC-MS/MS

| Substance | binding [1] | binding [2] | binding [4] | binding [5] | binding [6] | binding [7] | also measured |
| --- | --- | --- | --- | --- | --- | --- | --- |
| Arp2 (from UniProt P32381 1-391) | – | – | binds | binds | binds | binds | binding [3]: binds; binding [8]: binds |
| Arc40 (from UniProt P38328 1-384) | – | – | binds | binds | binds | binds | binding [9]: binds |
| Cdc28 (from UniProt P00546 2-298) | – | – | – | – | – | – | binding [10]: binds; binding [11]: binds; binding [12]: binds; binding [13]: binds; binding [14]: binds; binding [15]: binds |
| Rad53 (from UniProt P22216 1-821) | binds | binds | – | – | – | – | binding [16]: binds; binding [17]: binds; binding [18]: binds; binding [19]: binds; binding [20]: binds |

The next lines start with results.

| binding [1] | binding [2] | binding [4] | binding [5] | binding [6] | binding [7] | Substance | also measured |
| --- | --- | --- | --- | --- | --- | --- | --- |
| binds | binds | – | – | – | – | Hpr5 (Srs2) (from UniProt P12954 1-1174) | – |
| binds | binds | – | – | – | – | Rsp5 (from UniProt P39940 1-809) | – |
